# Data source: PubChem BioAssay AID493246 (Drosophila RNAi Screening Center, 2011)
# Screen: 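Genome-wide search for dsRNAs that reduce cell number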 (primary screen)
# Cells: Drosophila Kc and S2R+ cells
# Reagent: long dsRNA against Drosophila genes
# Measurement: 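Cell number per well after knock-down, printed as raw plate values; calls were based on per-plate z-scores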
# Scale: Kc cell number and S2R+ cell number: higher = more cells remaining
# Active means: 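Counted as a hit if cell number falls by a z-score of at least 3 within its plate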
# In all, the deposit lists about 21,000 reagents; this is a random part of those with a known target gene and a result. Of all reagents, 429 (2%) are marked active. 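Values are raw and not normalised between plates; calls rest on per-plate z-scores that were not deposited.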 The numbers tell different reagents against one gene apart. A plus sign joins genes that one reagent is predicted to hit. Not stated in the record: the amount of reagent, the time to read-out.
target gene,dsRNA no.,"Kc cell number, rep 1","Kc cell number, rep 2","S2R+ cell number, rep 1","S2R+ cell number, rep 2",Outcome
cag,1,1.74e6,1.77e6,1.31e6,1.48e6,inactive
hyx,1,1.33e6,1.46e6,9.55e5,1.03e6,inactive
Cndp2,1,1.54e6,1.52e6,1.18e6,1.36e6,inactive
CG42354 + CG42353,1,4.18e5,,6.79e5,,inactive
Wnt5,1,1.54e6,1.58e6,1.16e6,1.24e6,inactive
Neb-cGP,1,1.58e6,1.56e6,1.04e6,1.14e6,inactive
Cap-H2,1,1.76e6,1.81e6,1.28e6,1.45e6,inactive
CG42402,1,1.41e6,1.49e6,1.00e6,1.09e6,inactive
Fic,1,1.11e6,1.39e6,7.00e5,8.35e5,inactive
CG17477,1,1.34e6,1.34e6,1.10e6,1.22e6,inactive
cora,1,1.73e6,1.67e6,1.23e6,1.29e6,inactive
dar1,1,1.49e6,1.38e6,9.43e5,1.12e6,inactive
dar1,2,1.11e6,1.28e6,9.54e5,1.19e6,inactive
CG12171,1,1.34e6,1.36e6,1.28e6,1.39e6,inactive
CG11920,1,1.50e6,1.63e6,1.24e6,1.35e6,inactive
CG2082,1,1.49e6,1.55e6,1.19e6,1.27e6,inactive
AP-2mu,1,1.67e6,1.88e6,1.20e6,1.27e6,inactive
Calx,1,1.75e6,1.90e6,1.13e6,1.25e6,inactive
Calx,2,1.49e6,1.48e6,1.11e6,1.09e6,inactive
Calx,3,1.44e6,1.32e6,1.11e6,1.16e6,inactive
Pgant4,1,1.55e6,1.55e6,1.21e6,1.37e6,inactive
Tsp42A,1,1.57e6,1.59e6,1.34e6,1.41e6,inactive
Ca-beta,1,1.69e6,1.71e6,1.23e6,1.34e6,inactive
Ca-beta,2,1.57e6,1.61e6,1.19e6,1.34e6,inactive
Ca-beta,3,1.61e6,1.75e6,1.05e6,1.14e6,inactive
CG10208,1,1.66e6,1.83e6,1.04e6,1.12e6,inactive
Tmem43,1,1.71e6,1.84e6,1.13e6,1.19e6,inactive
Polr2G,1,1.47e6,1.56e6,1.05e6,1.17e6,inactive
CG6015,1,1.33e6,1.51e6,7.37e5,8.30e5,inactive
CG4983,1,1.32e6,1.33e6,1.08e6,1.18e6,inactive
Est-6,1,1.29e6,1.34e6,1.28e6,1.37e6,inactive
CG12477,1,1.72e6,1.80e6,1.28e6,1.36e6,inactive
Nt5a,1,1.31e6,1.36e6,1.10e6,1.14e6,inactive
CG15734,1,1.60e6,1.49e6,1.09e6,1.20e6,inactive
CG6118,1,3.90e5,4.86e5,7.11e5,8.09e5,active
sta,1,1.28e6,1.31e6,7.50e5,9.32e5,inactive
CG10654,1,1.48e6,1.47e6,1.23e6,1.30e6,inactive
Nlg1,1,1.55e6,1.61e6,1.12e6,1.35e6,inactive
Nlg1,2,1.55e6,1.68e6,1.18e6,1.28e6,inactive
Nlg1,3,1.39e6,1.54e6,1.22e6,1.25e6,inactive
Nlg1,4,1.41e6,1.56e6,1.23e6,1.31e6,inactive
Reps,1,1.55e6,1.64e6,1.24e6,1.40e6,inactive
cato,1,1.54e6,1.66e6,1.22e6,1.38e6,inactive
vih,1,1.20e6,1.37e6,7.05e5,8.06e5,active
Rgk3,1,1.59e6,1.68e6,1.17e6,1.27e6,inactive
Rgk3,2,1.78e6,1.82e6,1.23e6,2.10e5,inactive
Rgk3,3,1.64e6,1.64e6,1.16e6,2.47e5,inactive
Rgk3,4,1.60e6,1.68e6,1.27e6,2.20e5,inactive
CG9776,1,1.64e6,1.70e6,1.46e6,1.48e6,inactive
ko,1,1.39e6,1.55e6,1.30e6,1.36e6,inactive
CG31262,1,1.89e6,1.80e6,1.16e6,1.34e6,inactive
CG9257,1,1.61e6,1.70e6,1.36e6,4.12e5,inactive
CG17211,1,1.54e6,1.65e6,1.20e6,1.31e6,inactive
Adgf-A2,1,1.34e6,1.49e6,1.11e6,1.24e6,inactive
Teh2,1,1.39e6,1.34e6,1.11e6,1.29e6,inactive
ND-24L,1,1.64e6,1.87e6,1.39e6,1.48e6,inactive
CG13590,1,1.77e6,1.84e6,1.26e6,1.33e6,inactive
Uvrag,1,1.39e6,1.44e6,1.17e6,1.27e6,inactive
Urod,1,1.78e6,1.84e6,1.39e6,1.64e6,inactive
